Results taken from PubChem BioAssay AID2685 (National Center for Advancing Translational Sciences (NCATS), 2010).
Some of the results follow. These are further read-outs of the screen, such as a control signal, another cell line or another target. No call is given for them. Compounds called inactive in the main read-out are mostly missing here. Potencies come from curve fits of mixed quality, noted in brackets.

Experiment: qHTS Assay for Lipid Storage Modulators in Drosophila S3 Cells;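 for cell number change: cells counted by Cell Tracker Red CMTPX staining in the red channel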
Conditions: BODIPY lipid droplet fluorescence, 18-24 h; for cell number change: measured here: cell count max response, cells fed with added oleic acid
Outline: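 Drosophila S3 cells got compounds at several concentrations plus oleic acid (400 uM solution). Laser-scanning cytometry with 488 nm excitation read lipid droplets at 500-530 nm and cells at 575-640 nm. Percent activity was relative to 20 uM Triacsin C.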

[1] = measured here: lipid fluorescence (Fed channel) AC50, cells fed with added oleic acid
[2] = measured here: cell number channel AC50, cells fed with added oleic acid

Structure (SMILES)	cell number change	AC50 [1]	AC50 [2]
CCOc1ccc2nc(NC(=O)c3cc([N+](=O)[O-])ccc3N3CCOCC3)sc2c1	1.42%	0.731 µM [rising, partial curve, poor fit]	
Cc1cc(C)cc(C(=O)Nc2ccc(N3CCN(C(=O)c4ccco4)CC3)cc2)c1	-3.88%		
COc1ccc(Cl)cc1S(=O)(=O)n1ccnc1C(C)C	7.13%		
O=C(Oc1ccc(N(Cc2cccs2)C2=NS(=O)(=O)c3ccccc32)cc1)c1ccccc1	-37.9%		3.26 µM [rising, single point]
C=CCOC(=O)C1=C(C)NC(SC)=C(C#N)C1c1ccc(OCC)cc1 (stereo not drawn)	-14.4%		
O=C(CN1C(=O)NC2(CCCc3ccccc32)C1=O)Nc1ccccc1OC(F)F (stereo not drawn)	7.64%	0.0291 µM [falling, full curve, poor fit]	
NC(=O)N1CCc2ccccc21	-36.3%	32.6 µM [falling, single point]	
CCC(C)[C@@H](C(=O)Nc1ccc2c(c1)OCO2)N1Cc2ccccc2C1=O (stereo partly drawn)	24.4%	0.0326 µM [rising, full curve, poor fit]	
CCOc1ccc(-c2nnc(SCC(=O)N3CCOCC3)o2)cc1	18.1%	2.91 µM [rising, full curve]	
COC(=O)[C@H](Cc1ccccc1)NC(=O)N1CCC(C)CC1	-14%	20.6 µM [falling, partial curve]	
Cn1nc(C(F)(F)F)cc1C(=O)Nc1ccc(Cl)cc1	-30%	1.64 µM [falling, full curve]	2.59 µM [falling, full curve]
C/C(N)=C(/C#N)C(=O)COC(=O)c1cccc(O)c1	-9.62%	0.92 µM [rising, full curve]	0.13 µM [rising, full curve]
CC(=O)Nc1cccc(NC(=O)CS(=O)(=O)c2cn(CC(=O)N3CCCC3)c3ccccc23)c1	-7.65%	29.1 µM [rising, single point]	
Cn1ccnc1SCc1cn2cc(Br)ccc2n1	20.3%	29.1 µM [rising, single point]	0.82 µM [rising, full curve, poor fit]
O=c1cc2c(n[nH]1)CCCC2		29.1 µM [falling, single point]	
CSc1ccccc1C(=O)N1CCCCC1	-21.8%	11.2 µM [falling, partial curve, poor fit]	
CCCNC(=O)c1nnsc1S(=O)(=O)c1ccc(Cl)cc1	-37%	29.1 µM [falling, partial curve]	20.6 µM [falling, single point]
COc1cc(S(=O)(=O)Nc2ccccc2)ccc1NC=O	52.4%	9.2 µM [rising, partial curve]	0.731 µM [rising, full curve, poor fit]
COc1ccc(CCNC(=O)COC(=O)CNS(=O)(=O)c2ccc(SC)c([N+](=O)[O-])c2)cc1	-2.76%	1.64 µM [rising, partial curve]	
Cc1ccccc1-n1c(-c2csc3ccccc23)n[nH]c1=S	17.1%	0.058 µM [falling, full curve, poor fit]	

Structure (SMILES)	cell number change	AC50 [1]	AC50 [2]
COc1cc2nc(=S)n3[nH]c(COc4ccccc4C)nc3c2cc1OC	-0.74%		
O=C(Nc1nnc(CCN2CCCCC2)s1)C1CCCCC1	-32.6%	3.26 µM [falling, partial curve]	0.651 µM [falling, full curve]
O=C(COC(=O)CCN1C(=O)C2CC=CCC2C1=O)NCCc1ccccc1 (stereo not drawn)	-3.87%	0.146 µM [rising, full curve]	
COc1ccc(Cl)cc1NC(=O)COC(=O)C1CCCCC1	-32.9%	9.2 µM [falling, partial curve]	0.13 µM [falling, full curve, poor fit]
CC(=O)Nc1ccc(C(=O)N/N=C(\C)CC(=O)Nc2ccc(OCc3ccccc3)cc2)cc1	-7.95%	10.3 µM [falling, partial curve]	
CN(C(=O)COC(=O)CSc1ccc(C(N)=O)cc1[N+](=O)[O-])C1CCS(=O)(=O)C1 (stereo not drawn)	17.5%		
CCOC(=O)C(NCCCO)c1ccccc1 (stereo not drawn)	7.32%	1.84 µM [falling, partial curve]	1.84 µM [falling, partial curve]
COCCNc1nnc(SCC(=O)Nc2cc(C)on2)s1	17.2%	0.00461 µM [falling, full curve, poor fit]	
COc1ccc(F)cc1CN1CCN(CC(=O)N2CCc3ccccc32)CC1	-8.47%	3.66 µM [rising, single point]	
CC12CCC(=O)N1C(C(=O)Nc1nc3ccc(F)cc3s1)CS2 (stereo not drawn)	-11.6%	6.51 µM [rising, single point]	
NS(=O)(=O)c1cc(C(=O)N2CCc3ccccc32)c(Cl)cc1Cl	44.2%		1.46 µM [rising, partial curve]
O=C(NC1CCCc2ccccc21)c1cncc(Br)c1 (stereo not drawn)		0.00651 µM [rising, full curve, poor fit]	
Cc1ccc(S(=O)(=O)N(C)C)cc1NC(=O)C1CCC1	-41%	29.1 µM [falling, single point]	
CCOC(=O)C1=C(N)n2c(s/c(=C\c3cccnc3)c2=O)=C(C(=O)OCC)C1c1cccnc1 (stereo not drawn)			0.326 µM [rising, partial curve]
Cc1ccsc1/C=N/n1c(=S)[nH]nc(C)c1=O	26.3%	4.61 µM [rising, single point]	
O=C(CCCNC(=O)c1ccc(Cl)cc1)Nc1ccccc1F	27.8%	6.51 µM [rising, single point]	
Cn1c(CN2CCCCC2)c(C#N)c2ccccc21			1.46 µM [rising, single point]
NC(=S)N/N=C/c1ccc(OC(=O)c2cccnc2)cc1	-8.07%	20.6 µM [falling, partial curve]	
CC(C)OCCCNC(=O)c1cccc2c1C(=O)c1ccc(Cl)cc1S2(=O)=O	4.92%	1.16 µM [falling, single point]	1.16 µM [falling, single point]

3 neighbouring records out of the list so far, for reference:
Structure (SMILES)	cell number change	AC50 [1]	AC50 [2]
CC12CCC(=O)N1C(C(=O)Nc1nc3ccc(F)cc3s1)CS2 (stereo not drawn)	-11.6%	6.51 µM [rising, single point]	
NS(=O)(=O)c1cc(C(=O)N2CCc3ccccc32)c(Cl)cc1Cl	44.2%		1.46 µM [rising, partial curve]
O=C(NC1CCCc2ccccc21)c1cncc(Br)c1 (stereo not drawn)		0.00651 µM [rising, full curve, poor fit]	
